Results published in US20240390512A1, “METHODS OF TREATING CHEMOTHERAPY-RESISTANT CANCER WITH AN ANTIBODY-DRUG CONJUGATE” (DAIICHI SANKYO COMPANY, LIMITED, priority 2021, published 2024).
Positions count from the first letter of the chain named. Results are given in words; binding and its absence hold for the method and conditions named. Some entries that bind do so weakly or less than the wild type.

B1: humanized anti-CDH6 antibody H01L02 (antibody, human IgG1, kappa, V domains shown)
VH: EVQLVQSGAEVKKPGASVKVSCKASGYTFTRNFMHWVRQAPGQGLEWMGWIYPGDGETEYAQKFQGRVTITADTSTSTAYMELSSLRSEDTAVYYCARGVYGGFAGGYFDFWGQGTLVTVSS
VL: DIQMTQSPSSLSASVGDRVTITCKASQNIYKNLAWYQQKPGKAPKLLIYDANTLQTGVPSRFSGSGSGSDFTLTISSLQPEDFATYFCQQYYSGWAFGQGTKVEIKR
B2: humanized anti-CDH6 antibody H02L02 (antibody, human IgG1, kappa, V domains shown)
VH: B1 VH with A61N, T74R, Y95F
VL: B1 VL
B3: humanized anti-CDH6 antibody H02L03 (antibody, human IgG1, kappa, V domains shown)
VH: B1 VH with A61N, T74R, Y95F
VL: B1 VL with P40L, K42E, A43G, S69T, F87Y
B4: humanized anti-CDH6 antibody H04L02 (antibody, human IgG1, kappa, V domains shown)
VH: B1 VH with E1Q, V37I, I70L, T74R
VL: B1 VL
B5: anti-CDH6 antibody NOV0712 (antibody, human IgG1, kappa, V domains shown)
VH: QVQLLESGGGLVQPGGSLRLSCAASGFTFSSHGMHWVRQAPGKGLEWVSVISGSGSNTGYADSVKGRFTISRDNSKNTLYLQMNSLRAEDTAVYYCARQWGSYAFDSWGQGTLVTVSS
VL: DIQMTQSPSSLSASVGDRVTITCRASQSISSYLNWYQQKPGKAPKLLIYAVSTLQSGVPSRFSGSGSGTDFTLTISSLQPEDFATYYCQQSGTFPPTTFGQGTKVEIKR

What follows are binders tested against T1, EC5 deletion mutant of human CDH6, on cells (human) (UniProt P55285) (assay: flow cytometry; 293α cells transfected with EC5-deleted hCDH6 (open line) against untransfected 293α cells (shaded); APC anti-human IgG goat F(ab')2; antibody concentration not given).
T1 sequence: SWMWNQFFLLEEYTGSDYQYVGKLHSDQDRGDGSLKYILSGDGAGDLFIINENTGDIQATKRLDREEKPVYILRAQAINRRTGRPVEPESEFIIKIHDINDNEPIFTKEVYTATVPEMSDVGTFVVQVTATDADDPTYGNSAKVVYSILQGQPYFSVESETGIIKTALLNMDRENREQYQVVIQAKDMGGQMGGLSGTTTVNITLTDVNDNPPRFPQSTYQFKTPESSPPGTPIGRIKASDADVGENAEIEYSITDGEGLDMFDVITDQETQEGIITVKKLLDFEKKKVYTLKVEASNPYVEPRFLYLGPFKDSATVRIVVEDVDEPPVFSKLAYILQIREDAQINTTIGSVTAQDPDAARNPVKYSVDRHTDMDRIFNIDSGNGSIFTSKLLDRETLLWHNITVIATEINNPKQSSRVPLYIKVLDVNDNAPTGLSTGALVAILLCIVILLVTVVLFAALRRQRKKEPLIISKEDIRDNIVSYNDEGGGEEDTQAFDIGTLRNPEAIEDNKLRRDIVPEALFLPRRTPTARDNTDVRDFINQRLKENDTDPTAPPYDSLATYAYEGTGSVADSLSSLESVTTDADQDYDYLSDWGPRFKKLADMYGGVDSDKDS

Binder	binding
B1	binds
B2	binds
B3	binds
B4	binds

Each binder was assayed against T2, EC3 deletion mutant of human CDH6, on cells (human) (UniProt P55285) (assay: flow cytometry; 293α cells transfected with EC3-deleted hCDH6 (open line) against untransfected 293α cells (shaded); APC anti-human IgG goat F(ab')2; antibody concentration not given).
T2 sequence: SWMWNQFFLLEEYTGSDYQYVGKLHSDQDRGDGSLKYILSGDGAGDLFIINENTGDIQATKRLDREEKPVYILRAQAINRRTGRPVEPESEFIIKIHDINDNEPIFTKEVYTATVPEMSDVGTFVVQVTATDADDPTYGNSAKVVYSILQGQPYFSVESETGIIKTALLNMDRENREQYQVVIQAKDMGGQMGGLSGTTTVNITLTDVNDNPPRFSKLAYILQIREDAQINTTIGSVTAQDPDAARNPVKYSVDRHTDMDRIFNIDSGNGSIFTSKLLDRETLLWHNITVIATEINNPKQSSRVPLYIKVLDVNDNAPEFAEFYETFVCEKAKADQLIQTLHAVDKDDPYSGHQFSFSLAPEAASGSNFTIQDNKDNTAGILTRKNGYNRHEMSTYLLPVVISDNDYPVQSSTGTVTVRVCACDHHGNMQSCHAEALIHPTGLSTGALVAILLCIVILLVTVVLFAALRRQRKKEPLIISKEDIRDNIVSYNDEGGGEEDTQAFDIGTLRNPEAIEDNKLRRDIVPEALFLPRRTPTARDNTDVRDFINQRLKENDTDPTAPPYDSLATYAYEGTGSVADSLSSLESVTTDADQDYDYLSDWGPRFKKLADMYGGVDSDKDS

Binder	binding
B5	binds

What follows are binders tested against T3, EC2 deletion mutant of human CDH6, on cells (human) (UniProt P55285) (assay: flow cytometry; 293α cells transfected with EC2-deleted hCDH6 (open line) against untransfected 293α cells (shaded); APC anti-human IgG goat F(ab')2; antibody concentration not given).
T3 sequence: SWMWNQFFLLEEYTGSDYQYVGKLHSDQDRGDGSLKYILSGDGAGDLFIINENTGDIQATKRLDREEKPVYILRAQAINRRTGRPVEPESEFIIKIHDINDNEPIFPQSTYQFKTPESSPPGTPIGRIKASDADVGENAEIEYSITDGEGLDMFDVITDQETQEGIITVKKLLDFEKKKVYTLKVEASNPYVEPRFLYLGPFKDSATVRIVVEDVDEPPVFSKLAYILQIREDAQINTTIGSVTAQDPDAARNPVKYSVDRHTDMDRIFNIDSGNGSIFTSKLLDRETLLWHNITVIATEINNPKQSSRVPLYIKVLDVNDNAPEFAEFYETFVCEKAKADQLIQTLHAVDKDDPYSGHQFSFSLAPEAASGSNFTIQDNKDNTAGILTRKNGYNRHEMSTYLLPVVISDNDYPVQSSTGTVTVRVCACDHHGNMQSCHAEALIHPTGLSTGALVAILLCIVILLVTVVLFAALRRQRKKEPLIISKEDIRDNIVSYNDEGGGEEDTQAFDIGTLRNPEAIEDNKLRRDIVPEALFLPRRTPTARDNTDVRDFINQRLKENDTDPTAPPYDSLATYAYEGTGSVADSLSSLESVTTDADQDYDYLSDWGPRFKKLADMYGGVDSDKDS

Binder	binding
B5	binds
B1	binds
B2	binds
B3	binds
B4	binds

Each binder was assayed against T4, EC4 deletion mutant of human CDH6, on cells (human) (UniProt P55285) (assay: flow cytometry; 293α cells transfected with EC4-deleted hCDH6 (open line) against untransfected 293α cells (shaded); APC anti-human IgG goat F(ab')2; antibody concentration not given).
T4 sequence: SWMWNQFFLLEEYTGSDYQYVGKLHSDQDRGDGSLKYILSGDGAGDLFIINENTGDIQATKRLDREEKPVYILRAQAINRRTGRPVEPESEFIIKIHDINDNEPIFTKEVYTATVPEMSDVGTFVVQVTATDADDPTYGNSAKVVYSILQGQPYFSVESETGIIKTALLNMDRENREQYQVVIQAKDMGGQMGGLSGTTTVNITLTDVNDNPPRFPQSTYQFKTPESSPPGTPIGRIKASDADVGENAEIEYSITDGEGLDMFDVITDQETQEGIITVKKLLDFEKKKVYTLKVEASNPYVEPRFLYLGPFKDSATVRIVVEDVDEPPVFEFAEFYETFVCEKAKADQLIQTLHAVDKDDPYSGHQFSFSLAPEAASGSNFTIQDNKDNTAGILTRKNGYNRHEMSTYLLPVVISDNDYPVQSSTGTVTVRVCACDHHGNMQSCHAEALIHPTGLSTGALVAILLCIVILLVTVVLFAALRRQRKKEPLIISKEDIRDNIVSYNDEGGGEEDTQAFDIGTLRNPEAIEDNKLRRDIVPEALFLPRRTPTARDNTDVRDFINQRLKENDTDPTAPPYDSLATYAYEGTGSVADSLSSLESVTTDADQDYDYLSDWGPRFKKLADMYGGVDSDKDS

Binder	binding
B5	binds
B1	binds
B2	binds
B3	binds
B4	binds

These binders were tested against T5, EC1 deletion mutant of human CDH6, on cells (human) (UniProt P55285) (assay: flow cytometry; 293α cells transfected with EC1-deleted hCDH6 (open line) against untransfected 293α cells (shaded); APC anti-human IgG goat F(ab')2; antibody concentration not given).
T5 sequence: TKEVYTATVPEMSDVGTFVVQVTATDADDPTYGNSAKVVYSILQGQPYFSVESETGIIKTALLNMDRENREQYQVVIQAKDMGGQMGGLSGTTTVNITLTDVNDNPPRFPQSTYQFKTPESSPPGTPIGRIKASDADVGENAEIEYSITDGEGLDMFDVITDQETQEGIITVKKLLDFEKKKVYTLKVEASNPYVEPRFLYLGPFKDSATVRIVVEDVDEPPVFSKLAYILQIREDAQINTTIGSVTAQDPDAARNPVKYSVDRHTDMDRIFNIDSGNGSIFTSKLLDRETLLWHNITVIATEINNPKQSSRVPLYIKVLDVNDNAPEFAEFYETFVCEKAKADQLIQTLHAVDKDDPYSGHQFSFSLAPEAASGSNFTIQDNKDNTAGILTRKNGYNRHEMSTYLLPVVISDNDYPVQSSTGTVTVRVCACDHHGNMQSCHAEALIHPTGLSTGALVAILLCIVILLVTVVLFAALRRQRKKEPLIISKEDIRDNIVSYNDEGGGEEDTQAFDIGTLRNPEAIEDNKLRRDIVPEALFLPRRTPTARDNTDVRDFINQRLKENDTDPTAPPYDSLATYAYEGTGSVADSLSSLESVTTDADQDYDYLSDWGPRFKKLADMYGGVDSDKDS

Binder	binding
B5	binds
B1	binds
B2	binds
B3	binds
B4	binds

Each binder was assayed against T3, EC2 deletion mutant of human CDH6, on cells (human) (assay: flow cytometry, transfected 293α cells).

Binder	binding
B5	binds
B1	binds
B2	binds
B3	binds
B4	binds

What follows are binders tested against T2, EC3 deletion mutant of human CDH6, on cells (human) (assay: flow cytometry, transfected 293α cells).

Binder	binding
B5	binds

Each binder was assayed against T5, EC1 deletion mutant of human CDH6, on cells (human) (assay: flow cytometry, transfected 293α cells).

Binder	binding
B5	binds
B1	binds
B2	binds
B3	binds
B4	binds

These binders were tested against T1, EC5 deletion mutant of human CDH6, on cells (human) (assay: flow cytometry, transfected 293α cells).

Binder	binding
B1	binds
B2	binds
B3	binds
B4	binds

What follows are binders tested against T4, EC4 deletion mutant of human CDH6, on cells (human) (assay: flow cytometry, transfected 293α cells).

Binder	binding
B5	binds
B1	binds
B2	binds
B3	binds
B4	binds
